# Source: patent publication US7250422B2, “Pharmaceutical composition containing berberine as effective ingredient for preventing and treating addiction or tolerance to morphine” (priority 2002, dated 2007)
# Columns and labels:
# [1] = system: Male ICR mice; details: morphine 5 mg/kg s.c. single administration vs control; P<0.001; FIG. 3
# [2] = system: mice; experiment: Hot-plate test, morphine tolerance caused by repeated administration; assay type: in vivo; details: morphine 10 mg/kg s.c. once per day for six days, tested day 7; FIG. 4
smiles,measurement,setting,value
CN1CC[C@]23c4c5ccc(O)c4O[C@H]2[C@@H](O)C=C[C@H]3[C@H]1C5 [morphine],analgesic effect (AUC of % MPE),[1],significantly increased analgesic effect
same,"initial analgesic effect after repeated administration (AUC), morphine tolerance",[2],greatly reduced
